The campaign covered roughly 340,000 compounds. About 6,200 (1.8%) were called active. Inconclusive results, whose numbers are uncertain, are shown with a selection of clear calls. Calls come from the whole dose curve; as a rule, active = well fitted activation curve with a large enough effect; inconclusive = small, poorly fitted or top-dose-only effect; inactive = no such curve, though single readings can be large or run the other way. A potency beside an inconclusive call is a rough fit, not a confirmed value.
Test: A quantitative high throughput screen for small molecules that induce DNA re-replication in SW480 colon adenocarcinoma cells. For re-replication activation: % of control where 0% means no effect. Note: nearly all actives have a fitted effect of over 55% in size.
Details: Hoechst DNA content imaging, 48 h; re-replication activation: at 46.1 µM (top of the series) unless noted
Outline: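 Treated cells incubate 48 hr (37 C, 5% CO2), are stained 40 min with Hoechst, and nuclear fluorescence is enumerated; a rise in nuclei with high DNA signal marks re-replication.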
Potency is the fitted concentration of half-maximal effect.

SMILES | Potency | re-replication activation
CCN1CCCC1CNC(=O)c1cc(COc2ccc(C)c(C)c2)on1 (stereo not given) | inconclusive: 29.1 µM [activator, single point] | –
O=C(Nc1cccc2cccnc12)c1cccc2ccccc12 | inconclusive: 10.3 µM [activator, partial curve, poor fit] | –
Cc1ccc(OCc2nnc(SCC(=O)c3cccc([N+](=O)[O-])c3)n2C)cc1 | inactive | –
CC(=C/c1ccco1)/C=N/NC(=O)c1ccncc1 | inactive | –
CN(C)S(=O)(=O)c1cccc(NC(=O)COC(=O)c2ccc3ccccc3n2)c1 | inactive | –
Cc1ccc(/C=N/NC(=O)CCn2nc(C)cc2C)c(C)c1 | inconclusive: 16.4 µM [activator, single point] | –
Cc1ccc(NC(=O)CSc2nc3ncc(Br)cc3[nH]2)cc1C | inconclusive: 18.4 µM [activator, partial curve] | –
COc1cc2[nH]c(=S)n(C3CCN(Cc4ccccc4)CC3)c(=O)c2cc1OC | inactive | –
O=C(C1CCN(C2CCN(Cc3cccc4c3OCO4)CC2)CC1)N1CCOCC1 | inconclusive: 0.0058 µM [activator, full curve, poor fit] | –
COc1ccc(/C=C(\C#N)c2c[nH]c3ccccc23)cc1 | active: 18.4 µM | –
CC(=NCCCn1ccnc1)c1c(-c2ccccc2)[nH]n(-c2nc3ccccc3s2)c1=O | inconclusive: 32.6 µM [activator, partial curve, poor fit] | –
CC1Nc2ncnc(N3CCc4ccccc4C3)c2N(Cc2ccc(Cl)cc2)C1=O (stereo not given) | inconclusive: 29.1 µM [activator, single point] | –
CN(NC(=O)c1cccc(Cl)c1)c1nc(-c2ccccc2)nnc1C(F)(F)F | inconclusive: 20.6 µM [activator, single point] | –
COc1cc(/C=C/c2ccc3cccc(O)c3n2)cc(Br)c1OC | inconclusive: 11.2 µM [activator, partial curve, poor fit] | –
CC(=O)n1cc([C@@H]2C=C(C(=O)NCc3ccccc3)O[C@H](OCCCCO)C2)c2ccccc21 | – | inactive: 12.4% [at 9.22 µM]
C=CCOc1c(Cl)cc(C(=S)N2CCCC2)cc1OCC | inconclusive: 25.9 µM [activator, single point] | –
O=C(O)c1ccc2[nH]c3c(c2c1)CCCC3 | inconclusive: 9.2 µM [activator, partial curve, poor fit] | –
CN1CCN(CCc2nc3cc(NC(=O)COc4ccccc4)ccc3n2C)CC1 | inactive | –
COc1ccc(CCn2c(N)c(C#N)c3nc4ccccc4nc32)cc1OC | inconclusive: 20.6 µM [activator, single point] | –
CC(=O)C1=C(C)NC(SCc2ccc(C#N)cc2)=C(C#N)C1c1ccco1 (stereo not given) | inconclusive: 29.1 µM [activator, single point] | –
COc1ccc(/C=C/C(=O)c2cc(F)ccc2OC(=O)c2ccccc2)cc1OC | active: 1.3 µM | –
CCCCNC(=O)C(Sc1ccccc1)c1ccccc1 (stereo not given) | inactive | –
COc1ccc(/C=C2\SC(=S)N(CCC(=O)NCCCN3CCOCC3)C2=O)cc1 | inactive | –

Random excerpt: two records from the list
SMILES | Potency | re-replication activation
O=C(Nc1cccc2cccnc12)c1cccc2ccccc12 | inconclusive: 10.3 µM [activator, partial curve, poor fit] | –
COc1ccc(/C=C2\SC(=S)N(CCC(=O)NCCCN3CCOCC3)C2=O)cc1 | inactive | –

Further entries:

SMILES | Potency | re-replication activation
CC1CCCCN1c1nc(-c2ccncc2)nc2ccccc12 (stereo not given) | inconclusive: 29.1 µM [activator, single point] | –
Cc1cc(NC(=O)c2cc3ccccc3o2)ccc1NC(=O)c1ccccc1 | inconclusive: 29.1 µM [activator, single point] | –
O=C(Nc1ccc(F)cc1F)c1csc(-c2ccccc2)n1 | inconclusive: 0.058 µM [activator, full curve, poor fit] | –
COc1ccc(NC(=O)C2CCCCN2N)cc1OC (stereo not given) | – | inactive: -3.34% [at 9.22 µM]
N#Cc1nc(-c2cccc3ccccc23)oc1NCC1CCCO1 (stereo not given) | inconclusive: 18.4 µM [activator, single point] | –
COc1cc(NC(=S)N2CCCC2)cc(OC)c1 | inconclusive: 0.116 µM [activator, full curve, poor fit] | –
COc1ccccc1NC(=O)c1coc(=O)c(Br)c1 | inconclusive: 3.66 µM [activator, single point] | –
Cn1c2ccccc2c(=O)c2cc(C#Cc3ccsc3)ccc21 | inactive | –
Cc1cc(C(=O)NNC(=O)/C=C/c2ccccc2Cl)c(C)o1 | inactive | –
Cc1[nH]n(-c2ccccc2)c(=O)c1C=NCc1ccncc1 | inactive | –
CCCC(=NCCc1c(C)[nH]c2ccccc12)C1=C(O)CC(c2ccccc2)CC1=O (stereo not given) | active: 6.51 µM | –
COc1ccc2[nH]c3c(c2c1)CCN1C(=O)C(CC(=O)NCc2ccco2)C[C@H](C(=O)N2CCCCC2)[C@@]31C (stereo not given in full) | active: 18.4 µM | –
CN(CC(=O)Nc1ccc(F)cc1)C(=O)COC(=O)C1=COCCO1 | inactive | –
Cc1cc(/C=C2\Sc3ccccc3N2C)cc(C)[n+]1CC1CCCO1 (stereo not given) | active: 9.2 µM | –
CC1=CSC2=NC(=O)/C(=C\c3cccn3-c3ccc([N+](=O)[O-])cc3)C(=N)N12 | inconclusive: 18.4 µM [activator, partial curve, poor fit] | –
O=C1NC[C@H](Cc2ccccc2)N(C[C@H]2CCCN2C[C@H](Cc2ccccc2)N2C[C@H](Cc3ccc(O)cc3)N(CCc3ccccc3)C(=O)C2=O)C1=O | inconclusive: 23.1 µM [activator, partial curve, poor fit] | –
O=C(Nc1ccc(Cl)c(S(=O)(=O)N2CCCCC2)c1)c1cnccn1 | inactive | –
O=C1C2C3C=CC(C4CC34)C2C(=O)N1c1ccc2c(c1)OCO2 (stereo not given) | inconclusive: 3.66 µM [activator, full curve, poor fit] | –
Cc1ccc(S(=O)(=O)Nc2c(C)n(C)n(-c3ccccc3)c2=O)cc1C(=O)NCc1ccco1 | inactive | –
COc1cc2c(c(OC)c1OC)-c1c(cc3c(c1OC)OCO3)C[C@H](C)[C@@](C)(O)C2 | inconclusive: 20.6 µM [activator, single point] | –
O=Nc1c(O)n(Cc2cccc(C(F)(F)F)c2)c2ccccc12 | inactive | –
CCCc1ccc(-c2cc(NC(=O)CSc3n[nH]c(N)n3)n(-c3ccccc3)n2)cc1 | inconclusive: 20.6 µM [activator, single point] | –
